# Patent US20050074879A1, “Antisense oligonucleotide modulation of STAT3 expression” (priority 2000, published 2005)
# Some results were stated once for a whole list of compounds, not compound by compound. Oligonucleotides are written 5' to 3', each unit as a sugar letter and its base; * is a phosphorothioate linkage, no mark a phosphodiester; rarer units and linkages stand in square brackets, end groups in braces. Plain capitals give the bases only. e = 2'-O-(2-methoxyethyl) (MOE); [5mC] = 5-methylcytosine; d = 2'-deoxy (DNA)
# System: Mouse STAT3 mRNA
# Assay: Inhibition of mouse STAT3 mRNA expression in BCL1 cells (electroporation; RNase protection/Northern blot)
# Type: cell-based
# Parameters: dose or concentration left out as unconfirmed
# Settings: BCL1 cells electroporated with oligonucleotide, RNA collected 24 hours later
# Experimental: The B lymphoma cell line, BCL1 was obtained from ATCC (Rockville, Md.). BCL1 cells were cultured in RPMI 1640 medium.
# BCL1 cells (5×10^6 cells in PBS) were transfected with oligonucleotides by electroporation, at 200V, […]. using a BTX Electro Cell Manipulator 600 (Genetronics, San Diego, Calif.). For an initial screen, BCL1 were electroporated with […] oligonucleotide and RNA collected 24 hours later. Controls without oligonucleotide were subjected to the same electroporation conditions.
# Total cellular RNA was isolated using the RNEASY7 kit (Qiagen, Santa Clarita, Calif.). RNAse protection experiments were conducted using RIBOQUANT™ kits and template sets according to the manufacturer's instructions (Pharmingen, San Diego, Calif.). Northern blotting was performed as described in Chiang, M-Y. et al. (J. Biol. Chem., 1991, 266, 18162-18171), using a rat cDNA probe prepared by Xho I/Sal I restriction digest of psvsport-1 plasmid (ATCC, Rockville, Md.). mRNA levels were quantitated using a PhosphorImager (Molecular Dynamics, Sunnyvale, Calif.).
row,Substance,% mRNA INHIBITION [%]
1,17153 (antisense eA*eT*e[5mC]*eA*e[5mC]*dC*dC*dA*dC*dA*dC*dT*dC*dA*dC*eT*e[5mC]*eA*eT*eT) [compound 17153],> 45
2,17139 (antisense e[5mC]*e[5mC]*eA*eA*eG*dA*dG*dA*dT*dT*dA*dT*dG*dA*dA*eA*e[5mC]*eA*e[5mC]*e[5mC]) [compound 17139],> 45
3,17140 (antisense eG*e[5mC]*eT*e[5mC]*e[5mC]*dA*dA*dC*dA*dT*dC*dT*dG*dC*dT*eG*e[5mC]*eT*eT*e[5mC]) [compound 17140],> 45
4,17152 (antisense eA*eA*eA*eA*eA*dG*dT*dG*dC*dC*dC*dA*dG*dA*dT*eT*eG*e[5mC]*e[5mC]*e[5mC]) [compound 17152],> 45
5,17143 (antisense eG*e[5mC]*e[5mC]*eA*eG*dA*dC*dC*dC*dA*dG*dA*dA*dG*dG*eA*eG*eA*eA*eG) [compound 17143],> 45
6,17144 (antisense e[5mC]*eG*e[5mC]*eT*e[5mC]*dC*dT*dT*dG*dC*dT*dG*dA*dT*dG*eA*eA*eA*e[5mC]*e[5mC]) [compound 17144],> 45
7,17138 (antisense eA*eT*eG*eT*eG*dA*dC*dT*dC*dT*dT*dT*dG*dC*dT*eG*eG*e[5mC]*eT*eG) [compound 17138],> 45
8,17156 (antisense e[5mC]*eA*e[5mC]*e[5mC]*eA*dG*dG*dA*dG*dG*dC*dA*dC*dT*dT*eG*eT*e[5mC]*eT*eA) [compound 17156],> 45
9,17157 (antisense eA*eA*e[5mC]*e[5mC]*eT*dC*dC*dT*dG*dG*dG*dC*dT*dT*dA*eG*eT*e[5mC]*e[5mC]*eT) [compound 17157],> 45

# System: Human STAT3 mRNA
# Assay: Inhibition of human STAT3 mRNA expression in U266 cells, Northern blot
# Type: cell-based
# Settings: at one or more oligonucleotide concentrations (2.5, 5, 10 μM)
# Experimental: U266 human myeloma cell lines (originally obtained from American Type Culture Collection) were maintained in RPMI 1640 medium supplemented with 10% fetal calf serum. Cells (15×10^6 cells in PBS) were transfected with oligonucleotides at 200V with a single 6-millisecond pulse using a BTX Electro Square Porator T820 (Genetronics, San Diego Calif.). The cells were incubated for 24 hours before RNA extraction.
# Total cellular RNA was isolated using the Rneasy kit (Qiagen, Santa Clarita, Calif.). Northern blotting was perfomed on 15 μg of RNA using a cDNA probe prepared from MB-MDA 468 RNA by standard RT-PCR followed by a nested primer reaction. Signals were quantitated using a Molecular Dynamics Phosphorimager.
# In order to examine the importance of STAT3 expression in multiple myeloma cells, a series of 20mer STAT3 antisense oligonucleotides were designed and synthesized, using phosphorothioate chemistry and incorporating 2′-O-methoxyethyl modifications to improve hybridization affinity and nuclease resistance.
row,Substance,reduce STAT3 expression
1,"ACTCAAACTGCCCTCCTGCT (listed as DNA, chemistry not fully specified) [ISIS 17148]",over 50%
2,113210 (antisense eT*eA*eA*eA*eA*dG*dT*dG*d[5mC]*d[5mC]*d[5mC]*dA*dG*dA*dT*eT*eG*e[5mC]*eT*e[5mC]) [compound 113210],over 50%
3,113187 (antisense e[5mC]*e[5mC]*eG*e[5mC]*eT*d[5mC]*d[5mC]*dA*d[5mC]*d[5mC]*dA*d[5mC]*dA*dA*dA*eG*eG*e[5mC]*eA*e[5mC]) [compound 113187],over 50%
4,113209 (antisense eA*eA*eA*eA*eG*dT*dG*d[5mC]*d[5mC]*d[5mC]*dA*dG*dA*dT*dT*eG*e[5mC]*eT*e[5mC]*eA) [compound 113209],over 50%
5,113176 (antisense eG*e[5mC]*eT*e[5mC]*e[5mC]*dA*dG*d[5mC]*dA*dT*d[5mC]*dT*dG*d[5mC]*dT*eG*e[5mC]*eT*eT*e[5mC]) [compound 113176],over 50%
